Assay [1] addresses T1, DRM2, endogenous (Col-0 flowers) (Arabidopsis thaliana (endogenous in flowers)) (UniProt Q9M548).
T1 sequence: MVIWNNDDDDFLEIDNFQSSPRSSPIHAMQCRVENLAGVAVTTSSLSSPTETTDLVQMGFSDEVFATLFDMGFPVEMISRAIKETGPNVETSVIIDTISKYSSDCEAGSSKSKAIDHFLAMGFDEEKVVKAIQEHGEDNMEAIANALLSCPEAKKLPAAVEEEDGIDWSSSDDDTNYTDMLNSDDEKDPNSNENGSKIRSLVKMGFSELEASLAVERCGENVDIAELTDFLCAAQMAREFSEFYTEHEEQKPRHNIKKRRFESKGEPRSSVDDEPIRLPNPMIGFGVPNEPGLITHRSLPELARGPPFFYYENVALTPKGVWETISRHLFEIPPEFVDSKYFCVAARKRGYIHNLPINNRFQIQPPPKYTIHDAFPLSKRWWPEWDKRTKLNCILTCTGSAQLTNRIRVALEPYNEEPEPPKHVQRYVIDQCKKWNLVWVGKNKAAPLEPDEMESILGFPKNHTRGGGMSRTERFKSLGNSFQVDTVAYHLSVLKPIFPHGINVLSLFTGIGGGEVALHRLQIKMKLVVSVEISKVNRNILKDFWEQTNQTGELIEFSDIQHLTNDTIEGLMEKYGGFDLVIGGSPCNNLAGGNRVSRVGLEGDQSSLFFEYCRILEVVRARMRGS
Briefly: conventional chromatographic co-purification with mass spectrometry; Col-0 flower whole cell extract over phosphocellulose P11, DEAE Sephacel, MonoQ and two Superdex200 columns (BC500 + 0.5% NP40); DRM2 followed by immunoblot; fractions 27-29 pooled, 11 gel bands between 62 and 30 kDa analysed by MS/MS. On the technique in general: A western blot detects proteins with antibodies after separation by electrophoresis.

Assay [2] has as its target T2, DRM2-FLAG-HA (pDRM2-DRM2-FLAG-HA in drm1drm2) (Arabidopsis thaliana) (UniProt Q9M548).
T2 sequence: T1 sequence
Briefly: affinity purification with mass spectrometry; FLAG IP of DRM2-FLAG-HA from flower whole cell extract on anti-FLAG M2 affinity gel, BC500 buffer + 0.1% NP-40 (500 mM KCl, pH 8.0), 4 °C, eluted with 3xFLAG peptide; three main gel bands analysed by nanoLC-MS/MS.

No constants are given. Whether binding was seen depends on the method and setting. In cells and extracts the contact can be indirect. A yes stands for co-enrichment or nearness to the bait. Other partners may have been found. For some assays here: Tags and fused reporters may be left off the sequences shown.

B1: U2AF56 Associated Protein 56 (UAP56a/b), endogenous (enzyme, UniProt Q56XG6 1-427)
chain: MGDARDNEAYEEELLDYEEEDEKVPDSGNKVNGEAVKKGYVGIHSSGFRDFLLKPELLRAIVDSGFEHPSEVQHECIPQAILGMDVICQAKSGMGKTAVFVLSTLQQIEPSPGQVSALVLCHTRELAYQICNEFVRFSTYLPDTKVSVFYGGVNIKIHKDLLKNECPHIVVGTPGRVLALAREKDLSLKNVRHFILDECDKMLESLDMRRDVQEIFKMTPHDKQVMMFSATLSKEIRPVCKKFMQDPMEIYVDDEAKLTLHGLVQHYIKLSEMEKNRKLNDLLDALDFNQVVIFVKSVSRAAELNKLLVECNFPSICIHSGMSQEERLTRYKSFKEGHKRILVATDLVGRGIDIERVNIVINYDMPDSADTYLHRVGRAGRFGTKGLAITFVASASDSEVLNQVQERFEVDIKELPEQIDTSTYMPS
Regarding B1, the binding entry in assay [1] and in assay [2] was “binds” in each case.

The values are drawn from article PMC6487834.
